From publication PMC11358041 come the findings set out here.

Protein sequences, listed by entry. Tags and fused reporters are not part of them.
UniProt Q8K371: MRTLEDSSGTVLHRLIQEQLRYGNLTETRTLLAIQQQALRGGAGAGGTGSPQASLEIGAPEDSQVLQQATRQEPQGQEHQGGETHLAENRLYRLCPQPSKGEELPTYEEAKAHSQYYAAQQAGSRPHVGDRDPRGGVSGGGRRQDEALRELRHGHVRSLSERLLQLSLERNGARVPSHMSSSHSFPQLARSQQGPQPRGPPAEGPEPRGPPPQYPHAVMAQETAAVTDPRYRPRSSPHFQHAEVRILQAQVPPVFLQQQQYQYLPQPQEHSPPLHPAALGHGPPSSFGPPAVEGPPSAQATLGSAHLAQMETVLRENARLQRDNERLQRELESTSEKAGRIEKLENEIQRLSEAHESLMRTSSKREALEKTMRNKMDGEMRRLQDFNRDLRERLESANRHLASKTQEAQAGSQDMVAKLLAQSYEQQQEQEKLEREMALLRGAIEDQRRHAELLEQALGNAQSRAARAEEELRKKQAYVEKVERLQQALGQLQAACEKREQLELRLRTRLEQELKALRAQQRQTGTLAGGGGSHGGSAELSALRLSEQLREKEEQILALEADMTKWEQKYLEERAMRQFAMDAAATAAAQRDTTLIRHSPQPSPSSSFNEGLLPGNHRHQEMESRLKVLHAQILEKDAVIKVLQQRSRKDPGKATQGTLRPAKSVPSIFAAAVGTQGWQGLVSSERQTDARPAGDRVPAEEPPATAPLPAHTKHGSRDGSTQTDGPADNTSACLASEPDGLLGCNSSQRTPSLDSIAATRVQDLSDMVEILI
UniProt Q02248: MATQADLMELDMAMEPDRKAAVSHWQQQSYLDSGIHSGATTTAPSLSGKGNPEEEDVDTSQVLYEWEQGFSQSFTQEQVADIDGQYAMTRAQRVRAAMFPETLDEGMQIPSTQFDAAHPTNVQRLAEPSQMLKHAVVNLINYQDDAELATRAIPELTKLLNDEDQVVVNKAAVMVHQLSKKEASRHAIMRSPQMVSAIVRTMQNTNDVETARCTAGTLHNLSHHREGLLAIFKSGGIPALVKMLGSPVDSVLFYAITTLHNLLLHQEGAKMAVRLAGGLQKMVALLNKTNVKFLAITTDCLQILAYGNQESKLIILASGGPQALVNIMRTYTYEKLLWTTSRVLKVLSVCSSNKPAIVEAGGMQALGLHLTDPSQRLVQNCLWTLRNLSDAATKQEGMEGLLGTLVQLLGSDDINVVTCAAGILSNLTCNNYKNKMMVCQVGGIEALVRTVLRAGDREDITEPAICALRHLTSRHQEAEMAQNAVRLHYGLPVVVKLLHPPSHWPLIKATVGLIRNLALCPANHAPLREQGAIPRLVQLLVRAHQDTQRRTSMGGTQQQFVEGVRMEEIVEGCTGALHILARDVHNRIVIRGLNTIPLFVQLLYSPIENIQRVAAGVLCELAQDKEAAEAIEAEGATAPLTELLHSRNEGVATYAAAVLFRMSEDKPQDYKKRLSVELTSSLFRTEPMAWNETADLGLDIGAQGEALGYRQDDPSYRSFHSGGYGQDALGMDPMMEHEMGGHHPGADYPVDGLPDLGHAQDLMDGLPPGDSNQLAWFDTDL
UniProt Q9QZQ1: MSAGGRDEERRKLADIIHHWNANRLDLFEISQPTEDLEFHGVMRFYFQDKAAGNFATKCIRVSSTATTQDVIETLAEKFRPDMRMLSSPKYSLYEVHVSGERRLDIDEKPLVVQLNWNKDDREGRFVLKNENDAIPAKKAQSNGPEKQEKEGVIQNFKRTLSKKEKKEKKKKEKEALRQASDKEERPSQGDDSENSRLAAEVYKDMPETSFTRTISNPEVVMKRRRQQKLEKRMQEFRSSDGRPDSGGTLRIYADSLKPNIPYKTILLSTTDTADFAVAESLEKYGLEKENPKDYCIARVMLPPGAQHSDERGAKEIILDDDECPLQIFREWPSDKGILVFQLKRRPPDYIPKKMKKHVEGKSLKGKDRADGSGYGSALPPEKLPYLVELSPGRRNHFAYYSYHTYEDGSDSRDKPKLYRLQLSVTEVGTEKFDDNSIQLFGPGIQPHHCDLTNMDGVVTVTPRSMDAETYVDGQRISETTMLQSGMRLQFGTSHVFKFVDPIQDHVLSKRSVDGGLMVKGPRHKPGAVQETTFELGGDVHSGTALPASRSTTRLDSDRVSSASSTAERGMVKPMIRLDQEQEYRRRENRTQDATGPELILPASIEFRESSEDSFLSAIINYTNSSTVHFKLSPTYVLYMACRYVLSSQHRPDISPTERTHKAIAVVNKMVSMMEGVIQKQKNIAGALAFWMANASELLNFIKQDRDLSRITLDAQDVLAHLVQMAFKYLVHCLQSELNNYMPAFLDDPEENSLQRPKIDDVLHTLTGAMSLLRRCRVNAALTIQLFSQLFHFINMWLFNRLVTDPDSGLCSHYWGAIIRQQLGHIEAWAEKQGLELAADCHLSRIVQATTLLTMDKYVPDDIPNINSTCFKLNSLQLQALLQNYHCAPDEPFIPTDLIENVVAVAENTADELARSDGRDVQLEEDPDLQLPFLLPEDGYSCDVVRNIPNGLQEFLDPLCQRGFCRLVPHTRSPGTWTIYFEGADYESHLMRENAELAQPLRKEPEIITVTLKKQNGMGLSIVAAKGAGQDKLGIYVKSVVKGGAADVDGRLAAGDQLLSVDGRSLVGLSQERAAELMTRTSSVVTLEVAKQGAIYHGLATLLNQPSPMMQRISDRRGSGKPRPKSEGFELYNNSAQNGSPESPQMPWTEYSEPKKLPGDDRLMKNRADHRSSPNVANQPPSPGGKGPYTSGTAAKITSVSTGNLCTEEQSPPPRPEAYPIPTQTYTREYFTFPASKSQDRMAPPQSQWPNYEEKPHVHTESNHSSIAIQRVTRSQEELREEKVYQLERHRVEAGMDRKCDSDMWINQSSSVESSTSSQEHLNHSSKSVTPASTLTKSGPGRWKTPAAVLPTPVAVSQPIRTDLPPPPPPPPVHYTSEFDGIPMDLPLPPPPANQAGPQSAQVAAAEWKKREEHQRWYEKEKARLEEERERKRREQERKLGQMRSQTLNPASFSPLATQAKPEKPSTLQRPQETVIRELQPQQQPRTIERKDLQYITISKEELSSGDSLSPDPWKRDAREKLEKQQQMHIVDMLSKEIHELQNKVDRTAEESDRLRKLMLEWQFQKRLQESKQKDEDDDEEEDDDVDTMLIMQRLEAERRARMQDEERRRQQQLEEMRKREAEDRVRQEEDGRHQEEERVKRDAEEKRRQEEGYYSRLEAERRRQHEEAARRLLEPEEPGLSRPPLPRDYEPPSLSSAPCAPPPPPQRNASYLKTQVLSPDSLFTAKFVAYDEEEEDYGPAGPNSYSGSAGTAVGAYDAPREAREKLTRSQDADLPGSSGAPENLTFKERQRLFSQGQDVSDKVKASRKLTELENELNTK
UniProt Q6RHR9: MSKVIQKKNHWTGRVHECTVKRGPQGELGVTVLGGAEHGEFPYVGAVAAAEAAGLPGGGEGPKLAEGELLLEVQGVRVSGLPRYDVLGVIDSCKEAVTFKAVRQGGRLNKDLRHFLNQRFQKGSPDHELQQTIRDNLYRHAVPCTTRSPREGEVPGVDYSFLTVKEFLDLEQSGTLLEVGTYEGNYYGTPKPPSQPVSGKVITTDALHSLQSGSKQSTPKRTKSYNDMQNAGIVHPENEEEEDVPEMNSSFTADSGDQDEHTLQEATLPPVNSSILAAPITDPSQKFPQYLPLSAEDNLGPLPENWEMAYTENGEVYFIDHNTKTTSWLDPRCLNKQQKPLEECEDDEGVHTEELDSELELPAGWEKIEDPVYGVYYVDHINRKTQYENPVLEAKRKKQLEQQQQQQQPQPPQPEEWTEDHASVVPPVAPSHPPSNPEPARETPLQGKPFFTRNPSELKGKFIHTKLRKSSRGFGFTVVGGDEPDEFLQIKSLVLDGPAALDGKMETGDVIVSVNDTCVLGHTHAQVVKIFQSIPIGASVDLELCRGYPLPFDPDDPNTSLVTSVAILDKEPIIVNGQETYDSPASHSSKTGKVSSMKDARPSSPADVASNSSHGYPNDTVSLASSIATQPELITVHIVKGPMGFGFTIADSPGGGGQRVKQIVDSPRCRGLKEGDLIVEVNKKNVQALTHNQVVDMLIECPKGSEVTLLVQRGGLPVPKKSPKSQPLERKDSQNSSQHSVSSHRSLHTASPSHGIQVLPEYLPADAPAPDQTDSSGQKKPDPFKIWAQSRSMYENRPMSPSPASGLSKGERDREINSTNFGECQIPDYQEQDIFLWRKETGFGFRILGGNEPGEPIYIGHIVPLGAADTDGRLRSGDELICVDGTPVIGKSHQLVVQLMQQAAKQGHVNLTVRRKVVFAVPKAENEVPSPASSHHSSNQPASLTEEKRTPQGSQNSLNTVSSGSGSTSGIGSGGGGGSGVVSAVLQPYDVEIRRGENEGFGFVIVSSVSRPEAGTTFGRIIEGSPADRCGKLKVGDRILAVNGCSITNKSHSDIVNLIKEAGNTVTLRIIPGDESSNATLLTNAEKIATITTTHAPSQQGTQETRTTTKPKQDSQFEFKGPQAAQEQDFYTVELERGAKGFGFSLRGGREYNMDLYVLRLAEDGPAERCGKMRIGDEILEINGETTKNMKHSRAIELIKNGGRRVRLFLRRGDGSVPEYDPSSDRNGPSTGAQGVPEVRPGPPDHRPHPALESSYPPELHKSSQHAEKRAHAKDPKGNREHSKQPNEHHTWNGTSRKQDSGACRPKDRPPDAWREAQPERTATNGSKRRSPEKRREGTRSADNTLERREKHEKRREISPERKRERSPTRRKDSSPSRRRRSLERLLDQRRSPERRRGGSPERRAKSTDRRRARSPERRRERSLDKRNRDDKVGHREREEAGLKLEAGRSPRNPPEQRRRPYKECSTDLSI

These are yes or no findings as the source states them, for the method shown. In cells and extracts the contact can be indirect. Here binding means that the protein was enriched with, or labelled near, the bait; the list need not be complete.

The target in experiment [1] is AmotL2 (mouse, endogenous) (mouse (endogenous in MS1 cells, lung and aorta)) (UniProt Q8K371). As to the kind of experiment: affinity purification with mass spectrometry; IP with AmotL2 antibodies from MS1 cell lysate against control IP; on-bead digestion, LC-MS/MS; three independent experiments.
A further experiment concerns the target T1, BirA-p100-AmotL2 (human) (UniProt Q9Y2J4).
T1 sequence: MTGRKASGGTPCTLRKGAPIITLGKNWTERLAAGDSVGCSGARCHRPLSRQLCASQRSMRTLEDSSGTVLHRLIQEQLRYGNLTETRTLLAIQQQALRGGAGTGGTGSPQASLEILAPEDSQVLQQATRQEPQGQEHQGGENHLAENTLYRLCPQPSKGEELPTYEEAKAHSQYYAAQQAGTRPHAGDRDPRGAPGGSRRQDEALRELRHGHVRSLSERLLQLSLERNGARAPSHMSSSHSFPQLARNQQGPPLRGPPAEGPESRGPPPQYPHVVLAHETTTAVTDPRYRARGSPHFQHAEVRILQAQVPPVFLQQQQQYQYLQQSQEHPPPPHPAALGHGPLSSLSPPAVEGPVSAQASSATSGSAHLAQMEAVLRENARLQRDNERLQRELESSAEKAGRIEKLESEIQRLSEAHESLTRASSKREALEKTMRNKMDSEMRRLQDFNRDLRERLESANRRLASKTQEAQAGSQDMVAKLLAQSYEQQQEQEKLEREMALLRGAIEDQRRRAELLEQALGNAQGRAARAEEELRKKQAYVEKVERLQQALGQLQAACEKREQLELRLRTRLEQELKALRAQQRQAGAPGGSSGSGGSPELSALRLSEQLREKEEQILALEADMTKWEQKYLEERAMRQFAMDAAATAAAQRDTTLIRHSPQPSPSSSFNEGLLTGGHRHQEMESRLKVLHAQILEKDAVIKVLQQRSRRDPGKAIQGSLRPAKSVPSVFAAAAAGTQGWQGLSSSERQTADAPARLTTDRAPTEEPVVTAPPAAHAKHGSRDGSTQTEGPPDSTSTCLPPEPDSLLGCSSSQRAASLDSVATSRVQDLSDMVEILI
As to the kind of experiment: proximity labelling; BioID in MS1 cells stably expressing BirA-p100-AmotL2; biotin for 16 h, lysis in 8 M urea, streptavidin beads, MS; controls empty vector and BirA-p60-AmotL2.

With “β-catenin (mouse, endogenous) (from UniProt Q02248 1-781)”, the binding entry in experiment [1] is on record as “binds”.

Consider “Afadin (mouse, endogenous) (from UniProt Q9QZQ1 1-1820)”, for which the binding result in the experiment with BirA-p100-AmotL2 (human) is “binds”.

Take “Mpdz (mouse, endogenous) (from UniProt Q8VBX6 1-2055)”: the binding result in the experiment with BirA-p100-AmotL2 (human) is “binds”.

With “Magi1 (mouse, endogenous) (from UniProt Q6RHR9 1-1471)”, in the experiment with BirA-p100-AmotL2 (human), the binding result is listed as “binds”.

B1: p120 catenin (mouse, endogenous) (protein, UniProt P30999 1-938)
chain: MDDSEVESTASILASVKEQEAQFEKLTRALEEERRHVSAQLERVRVSPQDANSLMANGTLTRRHQNGRFVGDADLERQKFSDLKLNGPQDHNHLLYSTIPRMQEPGQIVETYTEEDPEGAMSVVSVETTDDGTTRRTETTVKKVVKTMTTRTVQPVPMGPDGLPVDASAVSNNYIQTLGRDFRKNGNGGPGPYVGQAGTATLPRNFHYPPDGYGRHYEDGYPGGSDNYGSLSRVTRIEERYRPSMEGYRAPSRQDVYGPQPQVRVGGSSVDLHRFHPEPYGLEDDQRSMGYDDLDYGMMSDYGTARRTGTPSDPRRRLRSYEDMIGEEVPPDQYYWAPLAQHERGSLASLDSLRKGMPPPSNWRQPELPEVIAMLGFRLDAVKSNAAAYLQHLCYRNDKVKTDVRKLKGIPILVGLLDHPKKEVHLGACGALKNISFGRDQDNKIAIKNCDGVPALVRLLRKARDMDLTEVITGTLWNLSSHDSIKMEIVDHALHALTDEVIIPHSGWEREPNEDCKPRHIEWESVLTNTAGCLRNVSSERSEARRKLRECDGLVDALIFIVQAEIGQKDSDSKLVENCVCLLRNLSYQVHREIPQAERYQEALPTVANSTGPHAASCFGAKKGKDEWFSRGKKPTEDPANDTVDFPKRTSPARGYELLFQPEVVRIYISLLKESKTPAILEASAGAIQNLCAGRWTYGRYIRSALRQEKALSAIAELLTSEHERVVKAASGALRNLAVDARNKELIGKHAIPNLVKNLPGGQQNSSWNFSEDTVVSILNTINEVIAENLEAAKKLRETQGIEKLVLINKSGNRSEKEVRAAALVLQTIWGYKELRKPLEKEGWKKSDFQVNLNNASRSQSSHSYDDSTLPLIDRNQKSDKKPDREEIPMSNMGSNTKSLDNNYSTLNERGDHNRTLDRSGDLGDMEPLKGAPLMQKI
With B1, the binding result (in experiment [1]; with BirA-p100-AmotL2 (human)) was “binds” in each case.

B2: AmotL1 (mouse, endogenous) (protein, UniProt Q9D4H4 1-968)
chain: MRRAKSRRGPCEPVLRAPPPICYSPSSPVQILEDPAYFYPDLQLYSGRHEASTLTVEASGGLRGKSVEDPLSSFHSPNFLRTPEVEMRGSEDVASGRVLQRLIQEQLRYGTPTENMNLLAIQHQATGSAGPAHATTNFSSTETLTQEDPQMVYQSARQEPQGQEHQGDNTVMEKQVRSTQPQQNNEELPTYEEAKAQSQFFRGQQQQQQQQQQQQQQQQQQGQGPLSHTYYMAGGTSQKSRTEGRPTVNRANSGQAHKDEALKELKQGHVRSLSERIMQLSLERNGAKQHLPSSGNGKSFKAGGEPSPAQPVCKALDPRGPPPEYPFKTKPMKSPVSKNQDHGLYYNDQHPGVLHEMVKPYPAPQPARTEVAVLRYQPPPEYGVTSRPCQLPFPSTVQQHSPMSSQTSSIGGTLHSVSLPLPLPISLAASQPLPASPNQQLGPDAFAIVERAQQMVEILTEENRVLHQELQGCYDNADKLHKFEKELQSISEAYESLVKSTTKRESLDKAMRTKLEGEIRRLHDFNRDLRDRLETANRQLSSREYDGHEDKAAESHYVSQNKEFLKEKEKLEMELAAVRTASEDHRRHIEILDQALSNAQARVIKLEEELREKQAYVEKVEKLQQALTQLQSACEKRGQMERRLRTWLERELDALRTQQKHGTGPPVSLPECNAPALMELVREKEERILALEADMTKWEQKYLEESTIRHFAMSAAAAATAERDTTISNHSRNGSYGESSLEAHIWPEEEEVVQANRRCQDMEYTIKNLHAKIIEKDAMIKVLQQRSRKDAGKTDSASLRPARSVPSIAAATGTHSRQTSLTSSQLTEEKKEEKTTWKGSIGFLLGKEHQGQASAPLLPTTPASALSLPASTTSASSTHAKTGSKDSSTQTDKSTELFWPSMASLPSRGRLSTAPSNSPILKHPAAKGAVEKQENSPGHGKASEHRGRVSNLLHKPEFPDGEMMEVLI
Turning to B2, in the experiment with BirA-p100-AmotL2 (human), the binding entry is “binds”.

B3: SUN2 (mouse, endogenous) (protein, UniProt Q8BJS4 1-731)
chain: MSRRSQRLTRYSQDDNDGGSSSSGASSVAGSQGTVFKDSPLRTLKRKSSNMKHLSPAPQLGPSSDSHTSYYSESVVRESYIGSPRAVSLARSALLDDHLHSEPYWSGDLRGRRRRGTGGSESSKANGLTAESKASEDFFGSSSGYSSEDDLAGYTDSDQHSSGSRLRSAASRAGSFVWTLVTFPGRLFGLLYWWIGTTWYRLTTAASLLDVFVLTRSRHFSLNLKSFLWFLLLLLLLTGLTYGAWHFYPLGLQTLQPAVVSWWAAKESRKQPEVWESRDASQHFQAEQRVLSRVHSLERRLEALAADFSSNWQKEAIRLERLELRQGAAGHGGGSSLSHEDALSLLEGLVSRREATLKEDLRRDTVAHIQEELATLRAEHHQDSEDLFKKIVQASQESEARVQQLKTEWKSMTQEAFQESSVKELGRLEAQLASLRQELAALTLKQNSVADEVGLLPQKIQAARADVESQFPDWIRQFLLGDRGARSGLLQRDEMHAQLQELENKILTKMAEMQGKSAREAAASLGQILQKEGIVGVTEEQVHRIVKQALQRYSEDRIGMVDYALESGGASVISTRCSETYETKTALLSLFGIPLWYHSQSPRVILQPDVHPGNCWAFQGPQGFAVVRLSARIRPTAVTLEHVPKALSPNSTISSAPKDFAIFGFDEDLQQEGTLLGTFAYDQDGEPIQTFYFQASKMATYQVVELRILTNWGHPEYTCIYRFRVHGEPAH
With B3, the binding result in experiment [1] is recorded as “binds”.

B4: LAP2α (mouse, endogenous) (protein, UniProt Q61033 1-693)
chain: MPEFLEDPSVLTKDKLKSELVANNVTLPAGEQRKDVYVQLYLQHLTARNRPPLAAGANSKGPPDFSSDEEREPTPVLGSGASVGRGRGAVGRKATKKTDKPRLEDKDDLDVTELSNEELLDQLVRYGVNPGPIVGTTRKLYEKKLLKLREQGTESRSSTPLPTVSSSAENTRQNGSNDSDRYSDNDEGKKKEHKKVKSARDCVPFSELASTPSGAFFQGISFPEISTRPPLGRTELQAAKKVQTTKRDPPRETCTDTALPGKGQTHKLAPGRSLFIPSESSYDRCVEKSSSPSSQREFAARLVSAAASPSLIRETTTTYSKDIVENICRGGKSRAQPLRAEEPGVSDQSVFSSEREVLQESERSQVISPPLAQAIRDYVNSLLVQGGVGSLPGTSDSVPTLDVENICKRLSQSSYQDSESLSPPRKVPRLSEKPARGGDSGSCVAFQNTPGSEHRSSFAKSVVSHSLTTLGVEVSKPPPQHDKIEASEPSFPLHESILKVVEEEWQQIDRQLPSVACRYPVSSIEAARILSVPKVDDEILGFISEATPRAATQASSTESCDKHLDLALCRSYEAAASALQIAAHTAFVAKSLQADISQAAQIINSDPSDAQQALRILNRTYDAASYLCDAAFDEVRMSACAMGSSTMGRRYLWLKDCKISPASKNKLTVAPFKGGTLFGGEVHKVIKKRGNKQ
B4: the binding entry in experiment [1] is listed as “binds”.

B5: LAP2β (mouse, endogenous) (protein, UniProt Q61029 1-452)
chain: MPEFLEDPSVLTKDKLKSELVANNVTLPAGEQRKDVYVQLYLQHLTARNRPPLAAGANSKGPPDFSSDEEREPTPVLGSGASVGRGRGAVGRKATKKTDKPRLEDKDDLDVTELSNEELLDQLVRYGVNPGPIVGTTRKLYEKKLLKLREQGTESRSSTPLPTVSSSAENTRQNGSNDSDRYSDNDEDSKIELKLEKREPLKGRAKTPVTLKQRRTEHNQSYSQAGVTETEWTSGSSTGGPLQALTRESTRGSRRTPRKRVETSQHFRIDGAVISESTPIAETIKASSNESLVANRLTGNFKHASSILPITEFSDITRRTPKKPLTRAEVGEKTEERRVDRDILKEMFPYEASTPTGISASCRRPIKGAAGRPLELSDFRMEESFSSKYVPKYAPLADVKSEKTKKRRSVPMWIKMLLFALVAVFLFLVYQAMETNQGNPFTNFLQDTKISN
Consider B5, for which the binding result in experiment [1] is listed as “binds”.

B6: VE-cadherin (mouse, endogenous) (protein, UniProt P55284 46-784)
chain: DWIWNQMHIDEEKNESLPHYVGKIKSNVNRQNAKYVLQGEFAGKIFGVDANTGNVLAYERLDREKVSEYFLTALIVDKNTNKNLEQPSSFTVKVHDINDNWPVFSHQVFNASVPEMSAIGTSVIRVTAVDADDPTVAGHATVLYQIVKGNEYFSIDNSGLIFTKIKNLDREKQAEYKIVVETQDALGLRGESGTATVMIRLEDINDNFPVFTQSTYTFSVPEDIRVGKPLGFLTVVDPDEPQNRMTKYSIMQGEYRDTFTIETDPKRNEGIIKPTKSLDYEVIQQYTFYIEATDPTIRYEYLSSTSGKNKAMVTINVLDVDEPPVFQRHFYHFKLPENQKKPLIGTVVAKDPDKAQRSIGYSIRKTSDRGQFFRITKQGNIYNEKELDRETYAWYNLTVEANELDSRGNPVGKESIVQVYIEVLDENDNPPEFAQPYEPKVCENAAQGKLVVQISATDKDVVPVNPKFKFALKNEDSNFTLINNHDNTANITVKYGQFNREHAKFHYLPVLISDNGVPSLTGTSTLTVGVCKCNEQGEFTFCEEMAAQAGVSIQALVAIFLCILTITVITLLIILRRRIRKQAHAHSKSALEIHEQLVTYDEEGGGEMDTTSYDVSVLNSVRGGSTKPLRSTMDARPAVYTQVQKPPRLAPGLHGGPREMATMIDVKKEEADNDGGGPPYDTLHIYGYEGAESIAESLSSLSTNSSDSDIDYDFLNDWGPRFKMLAELYGSDPQEELII
On to B6, for which the binding entry in experiment [1] was “binds”.
